Measured values published in patent US20210170002A1, “SLC45A2 PEPTIDES FOR IMMUNOTHERAPY” (Board of Regents, The University of Texas System, priority 2015, published 2021).

How the values were obtained:
[1] = test system: HLA-transduced SLC45A2+ melanoma cell line Mel888; assay: HLA immunoprecipitation and tandem mass spectrometry of parental and HLA-transduced Mel888 cells (natural processing and presentation); design: species or system human; settings: — = peptide not detected
Protocol: (§1) Tumor-associated peptides were directly eluted from HLA class I molecules isolated from fresh tumor tissue specimens or tumor cell lines. Tumor specimens (˜250 mg) were sliced into small pieces and digested in an enzymatic cocktail buffer in serum-free RPMI1640 medium until complete digestion, then washed and tumor cells lysed and supernatant collected. After measuring the protein concentration, tumor cell lysates were incubated with W6/32 antibody (specific for HLA-A, -B, and -C) then purified using resin beads. HLA class I-bound peptides were eluted and the presence of HLA was confirmed by Western Blot analysis. Positive elute fractions were analyzed by mass spectrometry, as described below.
(§2) For discovery phase tandem mass spectrometry (MS/MS), eluted MHC class I-bound peptides were injected onto a high-sensitivity HPLC system (Dionex 3000 RSLC), separated by reversed-phase chromatography in 0.1% formic acid water-acetonitrile on 1.8 micron C18 (Agilent Technologies) and analyzed on an Orbitrap Elite mass spectrometer (Thermo Scientific) using data-dependent acquisition. The Mascot algorithm searched acquired MS/MS spectra against the SwissProt complete human protein database using 10 ppm parent mass tolerance, 0.8 d fragment ion tolerance, Met oxidation, no enzyme selectivity. Search results were cross-referenced with the appropriate MHC-binding specificities using NetMHC 3.4 [101].
(§3) Several MDACC patient-derived melanoma cell lines and fresh melanoma tumor specimens were analyzed for surface HLA class I bound peptides using immunoprecipitation of HLA-A,B,C, acid elution, and tandem mass spectrometry (MS/MS). […] Additional evidence of these peptides being naturally processed and presented is shown in Table 5: Mel888 melanoma cells were transduced with lentiviral vectors to express either HLA-A*0201, A*2402, or A*0301. Immunopeptidome analysis was performed on parental and transduced Mel888 cells as described above. In this way, 5 of the 6 peptides identified in Table 4 were also detected in the transduced cells, but only if they expressed the appropriate HLA allele (Table 5 and FIG. 2). As shown, novel SLC45A2382-390 ([…]; SEQ ID NO:1) and SLC45A2393-402 ([…], SEQ ID NO:2) peptides were confirmed by elution from Mel888 transduced with HLA A*0201 or A*2402 using MS analysis.

[2] = test system: melanoma cell lines; assay: Mass spectrometric detection of HLA class I bound peptides in melanoma cell lines and tumor specimens; design: species or system human; settings: HLA-A,B,C immunoprecipitation, acid elution, MS/MS
Protocol: as §1, §2, §3

| Sequence | Ion score of the detected peptide ([1]; Mel888 A*0201) | Number of melanomas in which peptide was detected [2] | Ion score of the detected peptide ([1]; Mel888 A*0301) | Ion score of the detected peptide ([1]; Mel888 A*1101) | Ion score of the detected peptide ([1]; Mel888 A*2402) | Ion score of the detected peptide ([1]; Mel888 PARENTAL) |
| --- | --- | --- | --- | --- | --- | --- |
| SLYSYFQKV [HLA-A*0201 restricted SLC45A2-derived peptide, position 382-390] | 20 | 6 |  |  |  |  |
| ALIANPRRK [SLC45A2-derived peptide, position 129-137, A*0301] |  | 2 | 24 |  |  |  |
| RLLGTEFQV [SLC45A2-derived peptide, position 209-217, A*0201] | 27 | 8 |  |  |  |  |
| SYIGLKGLYF [HLA-A*2402 restricted SLC45A2-derived peptide, position 393-402] | 23 | 3 | 31 | 34 | 61 | 34 |
| SGQAGRHIY [SLC45A2-derived peptide, position 5-13, A*3002] |  | 2 |  |  |  |  |
| VWFLSPILGF [SLC45A2-derived peptide, position 73-82, A*2402] |  | 2 |  |  | 17 |  |
